Measurements as given in patent US20260137707A1, “METHODS OF MODULATING ATXN2 EXPRESSION” (University of Utah Research Foundation, priority 2022, published 2026).
Read-outs that look alike come from different tables or passages of the source. At least one read-out could not be matched to a standard name with certainty.

Test system: ATXN2-luc
Settings: Table 1, H2 cells, 24 hrs, single 10 μM dose, Z-score of luciferase

With `C[C@@H]1C[C@@H]([C@H](O)CC2CC(=O)NC(=O)C2)C(=O)[C@@H](C)C1` [CYCLOHEXIMIDE] the “SD from Mean” value was −3.670 SD and the “SD from Mean” value (listed as Cycloheximide) was −3.482 SD.

For `C[C@]12CC[C@H]3[C@@H](CC[C@]4(O)C[C@@H](O)CC[C@]34C=O)[C@@]1(O)CC[C@@H]2C1=CC(=O)OC1` [STROPHANTHIDIN], the “SD from Mean” value was −4.451 SD and the “SD from Mean” value (listed as Strophanthidin) was −3.662 SD.
